PubChem BioAssay AID504808 | Drosophila RNAi Screening Center, 2011
The deposit covers about 21,000 reagents; this is a random part of those that have a named target and a result. In the full data, 18 (0.084%) got an active call. 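Raw counts without plate normalisation, one of two replicates; the ratio scores behind the calls were not deposited.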 Unmarked entries are inactive. A plus sign joins genes that one reagent is predicted to hit. Not given: the amount of reagent, the time to read-out.

- Assay: 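Fly genes required to hold E2F transcription in check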 (primary screen)
- Cell system: Drosophila S2 cells
- Knock-down reagent: long dsRNA against Drosophila genes
- Detection: 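Dual luciferase plate measurements; E2F-specific signal taken as firefly over Renilla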
- Scale: E2F firefly: higher = more E2F reporter activity; Renilla normaliser: higher = more normaliser reporter signal
- Hit rule: 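Called active if the normalised E2F reporter went up by over 50%; the cutoff is arbitrary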

predicted target | dsRNA | E2F firefly, rep 1 | Renilla normaliser, rep 1
CG11029 | DRSC02119 | 1.28e5 | 5119
tbc | DRSC20540 | 1.04e5 | 5546
Gcn5 | DRSC11248 | 67816 | 4087
laza | DRSC11661 | 75918 | 3286
CtBP | DRSC16617 | 62918 | 3892
danr | DRSC14651 | 1.16e5 | 6222
CG14854 | DRSC14978 | 1.17e5 | 6925
CNPYb | DRSC09845 | 77664 | 3593
dpa | DRSC07604 | 1.57e5 | 4507
Myt1 | DRSC11228 | 83972 | 3406
CG45002 | DRSC20144 | 2.48e5 | 7242
CG14518 | DRSC14870 | 1.05e5 | 5489
Cyp6t2Psi | DRSC01840 | 1.17e5 | 4276
CG15253 | DRSC01871 | 97810 | 3932
RabX6 | DRSC08223 | 88242 | 3773
ArfGAP1 | DRSC11173 | 1.03e5 | 5759
Prosbeta2R2 | DRSC12193 | 1.12e5 | 4898
CG5644 | DRSC10531 | 98647 | 3826
CG9451 | DRSC11074 | 1.31e5 | 6589
CG2889 | DRSC18236 | 1.29e5 | 5531
CG13003 | DRSC19522 | 1.64e5 | 6505
Ucp4B | DRSC02665 | 1.48e5 | 5417
Rh4 + sina | DRSC11396 | 77015 | 4046
lcs | DRSC20580 | 1.40e5 | 6616
CG14234 | DRSC19317 | 66044 | 2672
CG14234 | DRSC19589 | 1.28e5 | 6681
Hsp60C | DRSC03036 | 1.67e5 | 5652
att-ORFB + DPCoAC | DRSC15556 | 1.37e5 | 7745
Hdc | DRSC07439 | 2729 | 233
Patsas | DRSC02975 | 90603 | 3498
CG10280 | DRSC12133 | 1.26e5 | 5441
rpk | DRSC12386 | 85085 | 3373
CG16710 | DRSC15136 | 1.03e5 | 6081
Fancm | DRSC16348 | 76260 | 3499
Alp6 | DRSC06710 | 3200 | 205
PIG-N | DRSC06837 | 1.47e5 | 4920
CG33191 + Pif1B | DRSC12706 | 63960 | 3935
CG15254 | DRSC01870 | 1.10e5 | 4448
l(3)73Ah | DRSC11359 | 1.15e5 | 7920
CG13203 | DRSC06327 | 97559 | 3603
Spn88Eb | DRSC16093 | 70396 | 3443
CG7567 | DRSC16258 | 1.27e5 | 6419
Vps45 | DRSC16398 | 1.54e5 | 6565
CG15365 | DRSC18038 | 25425 | 2614
Rab4 + CG42239 | DRSC05667 | 1.69e5 | 6588
CG5245 | DRSC15750 | 1.70e5 | 6808
rsh | DRSC18966 | 89635 | 2815
rsh | DRSC19816 | 61936 | 3911
rib | DRSC07021 | 70010 | 3443
dob | DRSC19948 | 8221 | 848
Kaz | DRSC14637 | 1.08e5 | 5244
Der-1 | DRSC00301 | 88648 | 3667
inaE | DRSC19376 | 1.58e5 | 6097
inaE | DRSC19377 | 8484 | 812
inaE | DRSC19379 | 1.35e5 | 6223
inaE | DRSC19726 | 1.41e5 | 5272
Nlg1 | DRSC12485 | 74362 | 3670
Nlg1 | DRSC12532 | 1.34e5 | 6111
Nlg1 | DRSC12533 | 1.27e5 | 5929
Nlg1 | DRSC12539 | 1.35e5 | 7195
dre4 | DRSC08714 | 92546 | 3659
PIG-K | DRSC18496 | 1.35e5 | 6682
Npc2c | DRSC15523 | 1.35e5 | 6393
alphaTub67C | DRSC11321 | 54618 | 3117
CG34225 | DRSC05270 | 1.27e5 | 5150
CG16758 | DRSC07984 | 1.34e5 | 4484
CG16758 | DRSC08492 | 75173 | 3239
CG4074 + CG4186 | DRSC11753 | 1.42e5 | 6535
CG7384 | DRSC03053 | 90286 | 3804
Cmtr1 | DRSC18400 | 1.17e5 | 5896
CG3306 | DRSC10357 | 79509 | 3304
CG6576 | DRSC10663 | 1.06e5 | 4772
CG13314 | DRSC09985 | 1.04e5 | 4451
rtet | DRSC14160 | 73960 | 3603
Ice1 | DRSC04191 | 73448 | 4003
CG14502 | DRSC06473 | 76775 | 3507
Tsc1 | DRSC16890 | 62882 | 3630
CG13428 | DRSC06390 | 1.35e5 | 4295
CG16741 | DRSC06622 | 1.35e5 | 4527
NC2beta | DRSC01895 | 93795 | 201
Rich | DRSC11607 | 69101 | 3568
Rrp45 | DRSC20198 | 2.37e5 | 7100
CG13995 | DRSC00907 | 99040 | 4865
CG13995 | DRSC02327 | 1.56e5 | 4798

11 entries from above, reformatted.
{"predicted target": "CG15254", "dsRNA": "DRSC01870", "E2F firefly, rep 1": 1.10e5, "Renilla normaliser, rep 1": 4448}
{"predicted target": "l(3)73Ah", "dsRNA": "DRSC11359", "E2F firefly, rep 1": 1.15e5, "Renilla normaliser, rep 1": 7920}
{"predicted target": "CG13203", "dsRNA": "DRSC06327", "E2F firefly, rep 1": 97559, "Renilla normaliser, rep 1": 3603}
{"predicted target": "Spn88Eb", "dsRNA": "DRSC16093", "E2F firefly, rep 1": 70396, "Renilla normaliser, rep 1": 3443}
{"predicted target": "CG7567", "dsRNA": "DRSC16258", "E2F firefly, rep 1": 1.27e5, "Renilla normaliser, rep 1": 6419}
{"predicted target": "Vps45", "dsRNA": "DRSC16398", "E2F firefly, rep 1": 1.54e5, "Renilla normaliser, rep 1": 6565}
{"predicted target": "CG15365", "dsRNA": "DRSC18038", "E2F firefly, rep 1": 25425, "Renilla normaliser, rep 1": 2614}
{"predicted target": "Rab4 + CG42239", "dsRNA": "DRSC05667", "E2F firefly, rep 1": 1.69e5, "Renilla normaliser, rep 1": 6588}
{"predicted target": "CG5245", "dsRNA": "DRSC15750", "E2F firefly, rep 1": 1.70e5, "Renilla normaliser, rep 1": 6808}
{"predicted target": "rsh", "dsRNA": "DRSC18966", "E2F firefly, rep 1": 89635, "Renilla normaliser, rep 1": 2815}
{"predicted target": "rsh", "dsRNA": "DRSC19816", "E2F firefly, rep 1": 61936, "Renilla normaliser, rep 1": 3911}
